The list shows a part of the results. The signal is at background level for most entries.
Experiments:
Assay in all cases: fluorescence intensity of antibody binding to polysaccharide-coupled beads; higher = stronger binding
[1] = target: pneumococcal polysaccharide Pn19B
[2] = target: pneumococcal polysaccharide Pn19C
[3] = target: pneumococcal polysaccharide Pn19F
[4] = target: pneumococcal polysaccharide Pn2
[5] = target: pneumococcal polysaccharide Pn20A
[6] = target: pneumococcal polysaccharide Pn20B
[7] = target: pneumococcal polysaccharide Pn21
[8] = target: pneumococcal polysaccharide Pn22A
[9] = target: pneumococcal polysaccharide Pn22F
[10] = target: pneumococcal polysaccharide Pn23A
[11] = target: pneumococcal polysaccharide Pn23B
[12] = target: pneumococcal polysaccharide Pn23F
[13] = antibody concentration 0.1 ng/mL
[14] = antibody concentration 0.534724 ng/mL
[15] = antibody concentration 2.8593 ng/mL
[16] = antibody concentration 15.2894 ng/mL
[17] = antibody concentration 81.7561 ng/mL
[18] = antibody concentration 437.17 ng/mL
[19] = antibody concentration 2337.65 ng/mL
[20] = antibody concentration 12500 ng/mL

B1: 4-99.3 (protein)
chain 1: QVQLQESGPGLVKPSETLSLTCAVSGYSISSGYYWGWIRQPPGKGLEYIGYISGSWGKSYYKPSLKSRVTISKDTSKNQFSLTLSSVTAADTAVYYCARRLEYVGFDVWGPGVLVTVSS
chain 2: QAAPTQPPSVSGSPGQSVTISCTGTSSDIGYYNAVSWYQQHPGKAPKLMIYEVSKRPSGVSDRFSGSKSGNTASLTISGLQAEDEADYYCSSYAGSNTYIFGSGTRLTVL
- fluorescence intensity [1, 13]: 27.8 MFI
- fluorescence intensity [1, 14]: 26.5 MFI
- fluorescence intensity [1, 15]: 27 MFI
- fluorescence intensity [1, 16]: 28 MFI
- fluorescence intensity [1, 17]: 27 MFI
- fluorescence intensity [1, 18]: 31.5 MFI
- fluorescence intensity [1, 19]: 76.5 MFI
- fluorescence intensity [1, 20]: 495 MFI
- fluorescence intensity [2, 13]: 26.2 MFI
- fluorescence intensity [2, 14]: 25 MFI
- fluorescence intensity [2, 15]: 24.5 MFI
- fluorescence intensity [2, 16]: 24.5 MFI
- fluorescence intensity [2, 17]: 25.8 MFI
- fluorescence intensity [2, 18]: 26 MFI
- fluorescence intensity [2, 19]: 57.5 MFI
- fluorescence intensity [2, 20]: 340 MFI
- fluorescence intensity [3, 13]: 25.5 MFI
- fluorescence intensity [3, 14]: 24.2 MFI
- fluorescence intensity [3, 15]: 24.5 MFI
- fluorescence intensity [3, 16]: 24.5 MFI
- fluorescence intensity [3, 17]: 25.5 MFI
- fluorescence intensity [3, 18]: 28 MFI
- fluorescence intensity [3, 19]: 33.5 MFI
- fluorescence intensity [3, 20]: 71.5 MFI
- fluorescence intensity [4, 13]: 18.5 MFI
- fluorescence intensity [4, 14]: 19.5 MFI
- fluorescence intensity [4, 15]: 19.5 MFI
- fluorescence intensity [4, 16]: 19.2 MFI
- fluorescence intensity [4, 17]: 19 MFI
- fluorescence intensity [4, 18]: 21.5 MFI
- fluorescence intensity [4, 19]: 26 MFI
- fluorescence intensity [4, 20]: 34.2 MFI
- fluorescence intensity [5, 13]: 23.2 MFI
- fluorescence intensity [5, 14]: 22 MFI
- fluorescence intensity [5, 15]: 21.5 MFI
- fluorescence intensity [5, 16]: 22 MFI
- fluorescence intensity [5, 17]: 22 MFI
- fluorescence intensity [5, 18]: 23.5 MFI
- fluorescence intensity [5, 19]: 55.2 MFI
- fluorescence intensity [5, 20]: 346 MFI
- fluorescence intensity [6, 13]: 23.5 MFI
- fluorescence intensity [6, 14]: 25 MFI
- fluorescence intensity [6, 15]: 23.5 MFI
- fluorescence intensity [6, 16]: 23 MFI
- fluorescence intensity [6, 17]: 22 MFI
- fluorescence intensity [6, 18]: 24 MFI
- fluorescence intensity [6, 19]: 30 MFI
- fluorescence intensity [6, 20]: 75 MFI
- fluorescence intensity [7, 13]: 19 MFI
- fluorescence intensity [7, 14]: 19 MFI
- fluorescence intensity [7, 15]: 17.5 MFI
- fluorescence intensity [7, 16]: 19 MFI
- fluorescence intensity [7, 17]: 18.2 MFI
- fluorescence intensity [7, 18]: 19.5 MFI
- fluorescence intensity [7, 19]: 20 MFI
- fluorescence intensity [7, 20]: 36 MFI
- fluorescence intensity [8, 13]: 22 MFI
- fluorescence intensity [8, 14]: 20 MFI
- fluorescence intensity [8, 15]: 18.5 MFI
- fluorescence intensity [8, 16]: 20.8 MFI
- fluorescence intensity [8, 17]: 20 MFI
- fluorescence intensity [8, 18]: 21 MFI
- fluorescence intensity [8, 19]: 35.2 MFI
- fluorescence intensity [8, 20]: 124 MFI
- fluorescence intensity [9, 13]: 30 MFI
- fluorescence intensity [9, 14]: 28.5 MFI
- fluorescence intensity [9, 15]: 30.2 MFI
- fluorescence intensity [9, 16]: 28.8 MFI
- fluorescence intensity [9, 17]: 31.5 MFI
- fluorescence intensity [9, 18]: 30.5 MFI
- fluorescence intensity [9, 19]: 34.2 MFI
- fluorescence intensity [9, 20]: 55 MFI
- fluorescence intensity [10, 13]: 21 MFI
- fluorescence intensity [10, 14]: 25.8 MFI
- fluorescence intensity [10, 15]: 22.5 MFI
- fluorescence intensity [10, 16]: 25.2 MFI
- fluorescence intensity [10, 17]: 25.5 MFI
- fluorescence intensity [10, 18]: 32.8 MFI
- fluorescence intensity [10, 19]: 56.2 MFI
- fluorescence intensity [10, 20]: 84.2 MFI
- fluorescence intensity [11, 13]: 29.8 MFI
- fluorescence intensity [11, 14]: 27 MFI
- fluorescence intensity [11, 15]: 28.5 MFI
- fluorescence intensity [11, 16]: 28.5 MFI
- fluorescence intensity [11, 17]: 28.8 MFI
- fluorescence intensity [11, 18]: 30.8 MFI
- fluorescence intensity [11, 19]: 36.5 MFI
- fluorescence intensity [11, 20]: 51 MFI
- fluorescence intensity [12, 13]: 17.5 MFI
- fluorescence intensity [12, 14]: 17.8 MFI
